The target of data set [1] is T1, RF2a (expressed in BY-2 protoplasts) (UniProt Q69IL4).
T1 sequence: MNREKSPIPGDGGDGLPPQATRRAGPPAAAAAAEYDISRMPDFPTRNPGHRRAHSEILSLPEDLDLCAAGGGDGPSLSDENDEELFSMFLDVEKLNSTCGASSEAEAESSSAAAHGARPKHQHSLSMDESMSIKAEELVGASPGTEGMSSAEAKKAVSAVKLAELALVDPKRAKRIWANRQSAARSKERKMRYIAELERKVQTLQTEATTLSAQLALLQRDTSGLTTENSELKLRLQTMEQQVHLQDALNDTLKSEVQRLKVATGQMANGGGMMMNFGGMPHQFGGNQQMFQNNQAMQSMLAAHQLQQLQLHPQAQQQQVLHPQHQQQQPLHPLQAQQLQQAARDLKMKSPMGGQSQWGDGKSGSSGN
In words: activity in cells. To be noted: protein in cells.

In a further data set the target is T2, RF2a (UniProt Q69IL4).
T2 sequence: T1 sequence
Put plainly: SPR. To be noted: higher affinity than RF2b, purified recombinant protein, protein details: N-terminal His6 (pET28a), label: biotin (SPR).

Data set [2] concerns the target T3, RF2a-3Δ (proline-rich, acidic and glutamine-rich domains deleted) (UniProt Q69IL4).
T3 sequence: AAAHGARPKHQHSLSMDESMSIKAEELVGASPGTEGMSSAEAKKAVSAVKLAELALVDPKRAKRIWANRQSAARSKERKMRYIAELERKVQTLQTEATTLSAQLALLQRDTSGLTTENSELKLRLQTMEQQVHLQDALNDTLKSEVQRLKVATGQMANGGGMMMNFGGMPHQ
In words: EMSA. The following applies: 100 ng protein, 5% acrylamide gel; purified recombinant protein; protein details: N-terminal His6 (pET28a); label: biotin (SPR), 32P (EMSA); variant of Box II.

Where [3] appears, read: GUS reporter in BY-2 protoplasts, range given for m1 and m2 together.

For at least one entry, the source does not settle the construct or the ends of the probe. Where a protein sequence is shown, tags need not be part of it.

Consider “ACGAATCAATAAAGAAGGACCAGAAGATATAAAGCTGGAACATCTTCACATGCTACCACATGGCTAGCATCTTTACTTTAGCATCTCTATTATTGTAAGAGTGTATAATGACCAGTGTGGCGCTGGACTCCAGTATATAAGGAGCACCAGAGTAGTGTAATAGATCATCGATCAAGCAAGCGAGAGCTCAAACTTCTAAGAGAGCAAGA (double strand) [E fragment with Box IIm1]”, for which, in data set [1] (setting [3]), the “activity on this sequence” value was “active”.

With “ACGAATCAATAAAGAAGGACCAGAAGATATAAAGCTGGAACATCTTCACATGCTACCACATGGCTAGCATCTTTACTTTAGCATCTCTATTATTGTAAGAGTGTATAATGAGGAGTGTGCCCCTTCACTCCAGTATATAAGGAGCACCAGAGTAGTGTAATAGATCATCGATCAAGCAAGCGAGAGCTCAAACTTCTAAGAGAGCAAGA (double strand) [E fragment with Box IIm2]”, in data set [1] (setting [3]), the “activity on this sequence” value is “active”.

Take “CCAGTGTGCCCCTGG (double strand) [Box II]”: the binding result with RF2a (fast on, slow off, BIAcore 2000, 1:1 with mass transfer) is “binds”. The “activity on this sequence” value in data set [1] (Box II fused to CaMV 35S -48 to +8 minimal promoter, GUS, activates, only the site is given) is on record as “active”.

On to “CCAGTGTGGCGCTGG (double strand) [Box IIm1]”, for which the binding result is “binds” with RF2a (32P (EMSA), variant of Box II) and “binds” in data set [2]. As to “GGAGTGTGCCCCTTC (double strand) [Box IIm2]”, the binding result in the data set with RF2a (variant of Box II) is reported as “binds”.

The values are drawn from patent US20070298499, “Methods and compositions for regulating gene expression in plant cells” (published 2007).
